Source: PubChem BioAssay AID463183 (Sanford-Burnham Center for Chemical Genomics, 2010)
Some of the results follow. These are further read-outs of the screen, such as a control signal, another cell line or another target. No call is given for them. The list favours compounds with an active or inconclusive main result.

test: hepatocyte lipid droplet accumulation inhibitors, confirmation, imaging, AML12 mouse hepatocytes, single concentration, high-content (AID 463183); details: BODIPY lipid droplet imaging, measured here: cell count, cytotoxicity, at 5.2 µM, droplets induced with 100 µM oleic acid;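 further: cells counted after overnight compound exposure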

Row | SMILES | cell count [cells]
1 | COc1ccc(NC(=O)[C@H](C)NC(=O)[C@@H]2Cc3ccccc3CN2C(=O)OC(C)(C)C)cc1 | 1600
2 | O=C1CN(C(=O)Cn2ncc(Cl)c(Cl)c2=O)c2ccccc2N1 | 1630
3 | CC(C)n1c(O)c(N=NC(=O)C2COc3ccccc3O2)c2ccccc21 (centres undefined) | 1620
4 | COc1ccc2c(c1)-c1c(ssc1=S)C(C)(C)N2S(=O)(=O)c1ccc(C)cc1 | 1660
5 | Cc1cc(C(c2ccc(O)cc2)c2cc(C)c(O)cc2C)c(C)cc1O | 1630
6 | CCCCn1c(O)c(/C=C/C=C/C=Nc2ccccc2)sc1=S | 1570
7 | Cc1ccccc1OCc1n(CC(=O)OC2CC(C)CCC2C(C)C)c2ccccc2[n+]1C (centres undefined) | 1610
8 | CC(C)c1cc(C(=O)N2CCCC(CCC(=O)NCc3ccccc3F)C2)n(C)n1 (centres undefined) | 1580
9 | CC(C)Oc1ccc(C(=O)Nc2ccc(N3CCN(C(=O)c4ccco4)CC3)cc2)cc1 | 1680
10 | N=c1c(C(=O)NCCN2CCOCC2)cc2c(=O)n3ccccc3nc2n1CCCN1CCOCC1 | 1580
11 | CCOc1ccc(CCNC(=O)COC(=O)c2ccc(OC)c(OC)c2OC)cc1OCC | 1620
12 | C=CCN1C(=O)c2ccccc2Sc2ccc(C(=O)NCC(OC)OC)cc21 | 1630
13 | COc1cc(SC)ccc1C(=O)OC(C)C(=O)Nc1ccc(NC(C)=O)cc1 (centres undefined) | 1620
14 | Cc1ccc(NC(=O)CCCc2c[nH]c3ccccc23)nc1 | 1590
15 | O=C(c1ccc(Cl)cc1)C1CCN(C(=O)NC2CCCCC2)CC1 | 1690
16 | Cc1ccc(CN2CCN(c3ccccc3)CC2)o1 | 1620
17 | Cc1ccc(S(=O)(=O)NCc2ccc(C(=O)NC3CC3)cc2)cc1 | 1630
18 | COc1cccc(NC(=O)CSc2nc3ccccc3nc2N2CCCC2)c1 | 1660
19 | CCCSC(=O)N(CC)CC(=O)Nc1c(CC)cccc1CC | 1590
20 | CCOc1ccc(NC(=O)CSc2nc3ccccc3nc2N2CCCC2)cc1 | 1670

Three entries from above, as tab-separated lines:
Row	SMILES	cell count [cells]
2	O=C1CN(C(=O)Cn2ncc(Cl)c(Cl)c2=O)c2ccccc2N1	1630
3	CC(C)n1c(O)c(N=NC(=O)C2COc3ccccc3O2)c2ccccc21 (centres undefined)	1620
4	COc1ccc2c(c1)-c1c(ssc1=S)C(C)(C)N2S(=O)(=O)c1ccc(C)cc1	1660

More records.

Row | SMILES | cell count [cells]
21 | O=C(Cn1nc(-c2cccc(Cl)c2)ccc1=O)Nc1ccc(C(=O)NC2CC2)cc1 | 1640
22 | O=C(O)CCCC(=O)Nc1ccc(Br)cc1C(=O)O | 1680
23 | CCc1ccc(NC(=O)C(C)OC(=O)c2ccc(N3CCCC3)c([N+](=O)[O-])c2)cc1 (centres undefined) | 1630
24 | CCOc1ccccc1NC(=O)CCCNC(=O)c1ccc(Cl)cc1 | 1620
25 | O=[N+]([O-])c1ccc(-[n+]2nc(-c3ccccc3)nn2-c2ccccc2)cc1 | 1620
26 | COc1ccc(CC(=O)Nn2c(-c3ccccc3)nc3ccccc3c2=O)cc1 | 1640
27 | CCOc1ccc(CCNC(=O)C2CC(=O)N(Cc3ccc(OC)cc3)C2)cc1OCC (centres undefined) | 1560
28 | COc1cccc(NC(=O)CN(Cc2ccccc2)S(C)(=O)=O)c1 | 1620
29 | COC(C[C@@H](O)C[C@@H](O)COCc1ccccc1)OC | 1610
30 | COC(=O)COc1cccc(NC(=O)c2ccc(Cl)cc2)c1 | 1550
31 | Cc1[nH]n(-c2ccccc2)c(=O)c1N=Nc1cccc(Cl)c1 | 1640
32 | CCc1ccccc1NC(=O)c1cccc(NC(=O)/C=C/c2ccco2)c1 | 1370
33 | CCOc1ccccc1-c1cc(C(=O)N/N=C/c2ccc(O)c(OC)c2)c2ccccc2n1 | 1510
34 | CCOc1ccc(CCNC(=O)c2cc(C)nc3ccccc23)cc1OCC | 1620
35 | CCOC(=O)[C@@H]1[C@H]2COc3ccc(Br)cc3[C@@H]2N2C(=O)N(c3ccc(C(F)(F)F)cc3)C(=O)[C@@]12C | 1630
36 | CCC1(c2ccccc2)NC(=O)N(CC(=O)N(C)Cc2c(F)cccc2Cl)C1=O (centres undefined) | 1670
37 | Cc1c(O)ccc(/C=N/Nc2nc(-c3cccnc3)nc3ccccc23)c1O | 1130
38 | COc1ccc(C2CC(c3cccs3)=NN2C(=O)CSc2nc3ccccc3s2)cc1 (centres undefined) | 1600
39 | CCOc1ccc(C2=NNC(c3cccs3)=Nc3ccc(OC)cc32)cc1OCC | 1580
